The subject of this assay is L1210 leukemia ip in BDF1 mice, survival T/C. Put plainly: NCI In Vivo Anticancer Drug Screen. Data for tumor model L1210 Leukemia (intraperitoneal) in B6D2F1 (BDF1) mice. The following applies: T/C endpoint: mean survival time, higher T/C = longer survival.
Where [1] appears, read: dose: 400.0 mg/kg/injection, schedule: Q04DX003 (ip), vehicle: Klucel (hydroxypropylcellulose) (HPC).

The list does not hold the whole screen: it gathers tests that were run many times, whatever their T/C, doses with no T/C, and many T/C values between a quarter and a half above the control. Other doses and runs of a compound stand elsewhere. T/C gives the treated animals as a percentage of the vehicle group. Some entries give survivors of the animals treated and no T/C: the source holds a T/C of zero for them, seemingly a mark for toxic or unscored doses. Some doses without a T/C left all or most animals alive at the check, yet need not have been tolerated: the source hardly ever lists a survival T/C far under the control, and the zero likely stands for such cases as well. Counts of survivors are from the toxicity check (mostly the fifth day) where no day follows; animals may have died later. Schedule codes are those of the source, read here as Q, the interval in days (D) or hours (H), X, the number of doses. For survival time, this PubChem deposit counts one and a half times the control or more as active, and values a quarter to a half above the control carry no call in these data; other NCI protocols may use other cut-offs.

As to `O=C1OC(=O)C2C3c4ccccc4C(c4ccccc43)C12` (configuration not stated), the survivor count by setting is: (dose: 150.0 mg/kg/injection, schedule: Q01DX009 (ip), vehicle: saline) 3 of 6; (dose: 200.0 mg/kg/injection, schedule: Q04DX003 (ip), vehicle: saline) 3 of 6; (dose: 225.0 mg/kg/injection, schedule: Q01DX009 (ip), vehicle: saline) 4 of 6; (dose: 335.0 mg/kg/injection, schedule: Q01DX009 (ip), vehicle: saline) 0 of 6; (dose: 400.0 mg/kg/injection, schedule: Q01DX001 (ip), vehicle: saline) 0 of 6; under setting [1], 2 of 6.
Turning to `O=[As](O)(O)CCCc1ccccc1`, the survivor count (dose: 25.0 mg/kg/injection, schedule: Q01DX009 (ip), vehicle: Klucel (hydroxypropylcellulose) (HPC)) is given as 1 of 3.
On to `Nc1cccc2c1C(=O)C=CC2=O`, for which the survivor count runs as follows: (dose: 6.25 mg/kg/injection, schedule: Q04DX003 (ip), vehicle: saline) 5 of 6; (dose: 7.0 mg/kg/injection, schedule: Q01DX009 (ip), vehicle: saline) 6 of 6; (dose: 10.0 mg/kg/injection, schedule: Q01DX009 (ip), vehicle: saline) 5 of 6; (dose: 12.5 mg/kg/injection, schedule: Q04DX003 (ip), vehicle: acetone) 3 of 6; (dose: 25.0 mg/kg/injection, schedule: Q04DX003 (ip), vehicle: acetone) 4 of 6; (dose: 50.0 mg/kg/injection, schedule: Q04DX003 (ip), vehicle: acetone) 0 of 6.
For `O=C(O)c1ccc(N=NSc2ncnc3nc[nH]c23)cc1O`, the T/C by setting is: (dose: 0.25 mg/kg/injection, schedule: Q01DX015 (ip), vehicle: carboxymethylcellulose (CMC)) 129 % of control; (dose: 0.5 mg/kg/injection, schedule: Q01DX015 (ip), vehicle: carboxymethylcellulose (CMC)) 137 % of control; (dose: 1.0 mg/kg/injection, schedule: Q01DX015 (ip), vehicle: carboxymethylcellulose (CMC)) 141 % of control; (dose: 2.0 mg/kg/injection, schedule: Q01DX015 (ip), vehicle: carboxymethylcellulose (CMC)) 130 % of control. Also, the survivor count runs as follows: (dose: 80.0 mg/kg/injection, schedule: Q01DX015 (ip), vehicle: carboxymethylcellulose (CMC)) 6 of 6; (dose: 160.0 mg/kg/injection, schedule: Q01DX015 (ip), vehicle: carboxymethylcellulose (CMC)) 4 of 6.
As for `O=C(Cl)C1CC2c3ccccc3C1([N+](=O)[O-])c1ccccc12` (configuration not stated), for the setting “dose: 100.0 mg/kg/injection, schedule: Q01DX009 (ip), vehicle: Klucel (hydroxypropylcellulose) (HPC)”, the survivor count was 6 of 6.
On to `C=CC(C)(C)c1ccccc1O`, for which the survivor count (dose: 400.0 mg/kg/injection, schedule: Q04DX003 (ip), vehicle: saline with Tween-80) is listed as 5 of 6.
As for `N#CSC/C=C/Cl`, the survivor count by setting is: (dose: 200.0 mg/kg/injection, schedule: Q01DX009 (ip), vehicle: Klucel (hydroxypropylcellulose) (HPC)) 0 of 6; under setting [1], 1 of 6.
As to `CC(=O)[C@H]1CC[C@H]2[C@@H]3C[C@H](C)C4=CC(=O)CC[C@]4(C)[C@H]3C(=O)C[C@]12C`, the survivor count by setting is: (dose: 80.0 mg/kg/injection, schedule: Q01DX009 (ip), vehicle: carboxymethylcellulose (CMC)) 10 of 10; (dose: 255.0 mg/kg/injection, schedule: Q03HX008 (ip), vehicle: Klucel (hydroxypropylcellulose) (HPC)) 0 of 10; (dose: 255.0 mg/kg/injection, schedule: Q03HX016 (ip), vehicle: Klucel (hydroxypropylcellulose) (HPC)) 0 of 10; (dose: 255.0 mg/kg/injection, schedule: Q03HX024 (ip), vehicle: Klucel (hydroxypropylcellulose) (HPC)) 0 of 10; (dose: 512.0 mg/kg/injection, schedule: Q01DX001 (ip), vehicle: Klucel (hydroxypropylcellulose) (HPC)) 5 of 10; (dose: 512.0 mg/kg/injection, schedule: Q01DX009 (ip), vehicle: Klucel (hydroxypropylcellulose) (HPC)) 1 of 10. The survivor count runs as follows: (dose: 512.0 mg/kg/injection, schedule: Q04DX003 (ip), vehicle: Klucel (hydroxypropylcellulose) (HPC)) 4 of 10; (dose: 800.0 mg/kg/injection, schedule: Q01DX015 (sc), vehicle: steroid suspending solution) 0 of 6; (dose: 1024.0 mg/kg/injection, schedule: Q01DX001 (ip), vehicle: Klucel (hydroxypropylcellulose) (HPC)) 1 of 10; (dose: 1024.0 mg/kg/injection, schedule: Q01DX009 (ip), vehicle: Klucel (hydroxypropylcellulose) (HPC)) 0 of 10; (dose: 1024.0 mg/kg/injection, schedule: Q04DX003 (ip), vehicle: Klucel (hydroxypropylcellulose) (HPC)) 0 of 10; (dose: 1024.0 mg/kg/injection, schedule: Q08DX002 (ip), vehicle: Klucel (hydroxypropylcellulose) (HPC)) 0 of 10. Moreover, the survivor count (dose: 2048.0 mg/kg/injection, schedule: Q01DX001 (ip), vehicle: Klucel (hydroxypropylcellulose) (HPC)) is 0 of 10; the survivor count (dose: 2048.0 mg/kg/injection, schedule: Q04DX003 (ip), vehicle: Klucel (hydroxypropylcellulose) (HPC)) is reported as 0 of 10; the survivor count (dose: 2048.0 mg/kg/injection, schedule: Q08DX002 (ip), vehicle: Klucel (hydroxypropylcellulose) (HPC)) is reported as 0 of 10.
For `COC(=O)c1ccccc1N(C)C(=O)Nc1ccc(F)cc1`, the survivor count (dose: 400.0 mg/kg/injection, schedule: Q04DX002 (ip), vehicle: carboxymethylcellulose (CMC)) is 3 of 3.
Consider `CCCCOP(=O)(OCCCC)c1ccccc1OC`, for which the survivor count (dose: 200.0 mg/kg/injection, schedule: Q04DX002 (ip), vehicle: saline with Tween-80) is 1 of 3 and the survivor count (dose: 400.0 mg/kg/injection, schedule: Q04DX002 (ip), vehicle: saline with Tween-80) was 0 of 3.
As for `CC(=O)Oc1cc2c[n+](C)c3c4cc(OC(C)=O)c(OC(C)=O)cc4ccc3c2cc1OC(C)=O`, for the setting “dose: 220.0 mg/kg/injection, schedule: Q01DX009 (ip), vehicle: saline”, the survivor count was 2 of 6.
